PubChem BioAssay AID1159578 | Peter MacCallum Cancer Centre | 2015

- Purpose: 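siRNA pools altering how lymphatic endothelial cells close a scratch wound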 (primary screen)
- Cells: human lymphatic endothelial cells
- Reagents: siRNA pool against human genes, 40 nM
- Duration: 48 h after transfection
- Measurement: 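High-content imaging of dye-stained cells in a scratch assay measures filled wound area and nuclei per well; duplicate means given as ratio to mock and robust z-score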
- Scale: migration robust z-score: higher = faster migration into the scratch; nuclei per well: higher = more cells in the well
- Rule for the call: 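Migration changed when robust z exceeds 2 or falls below -2 and mean nuclei number is at least 3300; otherwise not called changed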
- Meaning of the calls: active = migration changed; inactive = no migration change, or too few cells
This is one part, drawn at random, of about 18,000 reagents tested. About 1,030 of them (5.7%) count as active. 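Inactive calls also include pools with fewer than 3300 nuclei, whose migration was not assessed.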 Raw values vary from plate to plate and are shown uncorrected. Not all columns of the deposit are shown.

The opening 4 records, ahead of the listing:
| gene symbol | migration robust z-score | nuclei per well, duplicate mean | activity call |
| --- | --- | --- | --- |
| ATOX1 (GeneID 475) | 0.43 | 5508 | inactive |
| EIF1 (GeneID 10209) | 0.39 | 5544 | inactive |
| USP36 (GeneID 57602) | -0.31 | 5539 | inactive |
| NT5C3B (GeneID 115024) | -0.5 | 5495 | inactive |

Results, from the first entry:
| gene symbol | migration robust z-score | nuclei per well, duplicate mean | activity call |
| --- | --- | --- | --- |
| ATOX1 (GeneID 475) | 0.43 | 5508 | inactive |
| EIF1 (GeneID 10209) | 0.39 | 5544 | inactive |
| USP36 (GeneID 57602) | -0.31 | 5539 | inactive |
| NT5C3B (GeneID 115024) | -0.5 | 5495 | inactive |
| CST3 (GeneID 1471) | 2.06 | 5657 | active |
| KLHDC1 (GeneID 122773) | -0.07 | 5908 | inactive |
| C9orf40 (GeneID 55071) | -0.73 | 5326 | inactive |
| RPAIN (GeneID 84268) | -1.05 | 6631 | inactive |
| PFDN4 (GeneID 5203) | 0.26 | 5800 | inactive |
| SLC51B (GeneID 123264) | 0 | 5156 | inactive |
| SCD (GeneID 6319) | -1.79 | 6098 | inactive |
| ITGB8 (GeneID 3696) | 0.2 | 6181 | inactive |
| NFX1 (GeneID 4799) | -0.57 | 6392 | inactive |
| DNAJB13 (GeneID 374407) | 0.98 | 5422 | inactive |
| HNRNPLL (GeneID 92906) | 0.52 | 6603 | inactive |
| KRTAP3-1 (GeneID 83896) | -1.98 | 4410 | inactive |
| LRP12 (GeneID 29967) | -0.21 | 5202 | inactive |
| COP1 (GeneID 64326) | 0.62 | 6622 | inactive |
| RASGRF1 (GeneID 5923) | -1.12 | 5546 | inactive |
| UGT1A5 (GeneID 54579) | 0.29 | 5452 | inactive |
| CNST (GeneID 163882) | -0.14 | 7043 | inactive |
| AKIRIN1 (GeneID 79647) | 1.02 | 4968 | inactive |
| RINL (GeneID 126432) | 0.16 | 5771 | inactive |
| FAN1 (GeneID 22909) | -0.64 | 5852 | inactive |
| CCDC190 (GeneID 339512) | 0.08 | 4532 | inactive |
| MED31 (GeneID 51003) | 1.56 | 5633 | inactive |
| FOXE1 (GeneID 2304) | -0.16 | 5537 | inactive |
| BDNF (GeneID 627) | 0.13 | 6392 | inactive |
| MAK16 (GeneID 84549) | -0.16 | 6012 | inactive |
| HYOU1 (GeneID 10525) | -1.9 | 3944 | inactive |
| OR2A1 (GeneID 346528) | 0.57 | 5726 | inactive |
| OR10K1 (GeneID 391109) | -0.82 | 6001 | inactive |
| KLHDC3 (GeneID 116138) | 2.43 | 6354 | active |
| AK2 (GeneID 204) | -1.14 | 4296 | inactive |
| CTDP1 (GeneID 9150) | 1.84 | 5452 | inactive |
| RNF122 (GeneID 79845) | -0.73 | 4592 | inactive |
| PRPF19 (GeneID 27339) | -1.17 | 6486 | inactive |
| PRAM1 (GeneID 84106) | 0.24 | 3676 | inactive |
| HNRNPA3 (GeneID 220988) | 1.92 | 6894 | inactive |
| PRMT5 (GeneID 10419) | 0.05 | 6492 | inactive |
| PLS3 (GeneID 5358) | 1.6 | 5021 | inactive |
| NWD1 (GeneID 284434) | -1.53 | 5138 | inactive |
| ZNF639 (GeneID 51193) | -1.61 | 5994 | inactive |
| DTNB (GeneID 1838) | -0.9 | 6238 | inactive |
| IBTK (GeneID 25998) | -1.59 | 4588 | inactive |
| STK35 (GeneID 140901) | -5.81 | 2978 | inactive |
| RPL23AP82 (GeneID 284942) | -0.4 | 5836 | inactive |
| ACTA2 (GeneID 59) | 0.71 | 4712 | inactive |
| UTP23 (GeneID 84294) | 0.2 | 7804 | inactive |
| VN1R5 (GeneID 317705) | 0.78 | 6892 | inactive |
| PSMA8 (GeneID 143471) | -0.86 | 5632 | inactive |
| PPP1CB (GeneID 5500) | -0.9 | 5414 | inactive |
| GGCT (GeneID 79017) | -1.04 | 5696 | inactive |
| TEDDM1 (GeneID 127670) | -0.99 | 6592 | inactive |
| HOXB6 (GeneID 3216) | -1.01 | 5030 | inactive |
| AVEN (GeneID 57099) | 0.24 | 6020 | inactive |
| CC2D2B (GeneID 387707) | 0.01 | 5848 | inactive |
| SMG8 (GeneID 55181) | 0.29 | 5380 | inactive |
| LAIR1 (GeneID 3903) | 0.62 | 6348 | inactive |
| PTCH2 (GeneID 8643) | -1.15 | 3738 | inactive |
| LITAF (GeneID 9516) | -0.32 | 7237 | inactive |
| OR5I1 (GeneID 10798) | -0.34 | 5772 | inactive |
| PPP1R2 (GeneID 5504) | 0.9 | 6117 | inactive |
| OR52D1 (GeneID 390066) | 0.26 | 6772 | inactive |
| BMAL1 (GeneID 406) | -1.79 | 4794 | inactive |
| ZNG1E (GeneID 220869) | 0.16 | 7222 | inactive |
| CFAP54 (GeneID 144535) | 0.52 | 7796 | inactive |
| SPATS1 (GeneID 221409) | -4.12 | 4108 | active |
| LYPLAL1 (GeneID 127018) | 0.76 | 7062 | inactive |
| TSC22D3 (GeneID 1831) | 2.49 | 6117 | active |
| CIMAP2 (GeneID 163747) | -0.38 | 5682 | inactive |
| SSX4B (GeneID 548313) | 0.08 | 5402 | inactive |
| MYO5A (GeneID 4644) | 0.52 | 6013 | inactive |
